At least one structure is not confirmed: it was looked up by name or label, or the drawing left a doubt.
Assay: Aerosol particle sizing by laser diffraction (Sympatec-HELOS)
Format: physicochemical
[1] = 0.05% fluorescein solution, another experiment, FIG. 18A
[2] = 0.05% fluorescein, first experiment, FIG. 17A
[3] = 5.0% fluorescein solution, another experiment, FIG. 18B
[4] = 5.0% fluorescein, first experiment, FIG. 17B

## O=C1OC2(c3ccc(O)cc3Oc3cc(O)ccc32)c2ccccc21 [fluorescein]
[1]
  particle size ×10: 1.12 μm
  particle size ×50: 5.55 μm
  particle size ×90: 13.37 μm
[2]
  particle size ×10: 1.06 μm
  particle size ×50: 5.28 μm
  particle size ×90: 12.73 μm
[3]
  particle size ×10: 1.31 μm
  particle size ×50: 4.46 μm
  particle size ×90: 8.76 μm
[4]
  particle size ×10: 1.18 μm
  particle size ×50: 4.23 μm
  particle size ×90: 8.44 μm
